Test results: patent US12491217B2, “Compositions and methods for promoting healthy neural development in an unborn baby” (The Regents of the University of California, priority 2019, dated 2025)

Test: Metabolomics of fetal brain at E14.5
Assay type: in vivo, C57Bl/6J mice
[1] = E14.5 fetal brain metabolite level, ANOVA contrast ABX vs SPF
[2] = E14.5 fetal brain metabolite level, ANOVA contrast GF vs ABX
[3] = E14.5 fetal brain metabolite level, ANOVA contrast GF vs SPF
[4] = E14.5 fetal brain metabolite level, ANOVA contrast GF vs Sp
[5] = E14.5 fetal brain metabolite level, ANOVA contrast Sp vs ABX
[6] = E14.5 fetal brain metabolite level, ANOVA contrast Sp vs SPF
[7] = metabolite level in E14.5 fetal brain, ANOVA contrast ABX/SPF
[8] = metabolite level in E14.5 fetal brain, ANOVA contrast GF/ABX
[9] = metabolite level in E14.5 fetal brain, ANOVA contrast GF/SPF
[10] = metabolite level in E14.5 fetal brain, ANOVA contrast GF/Sp
[11] = metabolite level in E14.5 fetal brain, ANOVA contrast Sp/ABX
[12] = metabolite level in E14.5 fetal brain, ANOVA contrast Sp/SPF

Row | SMILES | fold of change ABX/SPF [1] | fold of change GF/ABX [2] | fold of change GF/SPF [3] | fold of change GF/Sp [4] | fold of change Sp/ABX [5] | fold of change Sp/SPF [6] | fold of change ABX/SPF [7] | fold of change GF/ABX [8] | fold of change GF/SPF [9] | fold of change GF/Sp [10] | fold of change Sp/ABX [11] | fold of change Sp/SPF [12]
1 | CCCCCCCCCCCCC/C=C/[C@@H](O)[C@H](COP(=O)([O-])OCC[N+](C)(C)C)NC(=O)CCCCCCCCCCCCCCCCC [compound 2567] | 0.84 | 1.01 | 0.84 | 0.87 | 1.15 | 0.96 | – | – | – | – | – | –
2 | CCCCCCCCCCCCC/C=C/[C@@H](O)[C@H](COP(=O)([O-])OCC[N+](C)(C)C)NC(=O)CCCCCCCCCCCCCCCCCCCCC [compound 2568] | 0.64 | 0.95 | 0.60 | 0.76 | 1.25 | 0.80 | – | – | – | – | – | –
3 | CCCCCCCCCCCCC/C=C/[C@@H](O)[C@H](COP(=O)([O-])OCC[N+](C)(C)C)NC(=O)CCCCCCCCCCCCCCCCCCCCCC [compound 2569] | 0.53 | 1.33 | 0.71 | 1.06 | 1.26 | 0.67 | – | – | – | – | – | –
4 | CCCCCCCCCCCCC/C=C/[C@@H](O)[C@H](COP(=O)([O-])OCC[N+](C)(C)C)NC(=O)CCCCCCCCCCCCCCCCCCCCCCC [compound 2570] | 0.64 | 1.15 | 0.73 | 0.92 | 1.25 | 0.80 | – | – | – | – | – | –
5 | CCCCCCCCCCCCC/C=C/[C@@H](O)[C@@H](N)CO [compound 2594] | 0.84 | 0.98 | 0.82 | 0.94 | 1.05 | 0.88 | – | – | – | – | – | –
6 | CC(O)(CC(=O)O)CC(=O)O [compound 2610] | 0.52 | 1.11 | 0.57 | 0.79 | 1.40 | 0.73 | – | – | – | – | – | –
7 | CC(C)=CCC[C@@H](C)[C@H]1CC[C@H]2[C@@H]3CC=C4C[C@@H](O)CC[C@]4(C)[C@H]3CC[C@]12C [compound 2624] | 0.78 | 0.94 | 0.73 | 0.80 | 1.17 | 0.91 | – | – | – | – | – | –
8 | CC(C)CCC[C@@H](C)[C@H]1CC[C@H]2[C@@H]3CCC4=CC(=O)CC[C@]4(C)[C@H]3CC[C@]12C [compound 2649] | – | – | – | – | – | – | 0.66 | 1.46 | 0.97 | 0.87 | 1.67 | 1.10
9 | CC(C)C(C)CCC(C)C1CCC2C3CC=C4CC(O)CCC4(C)C3CCC12C (stereo not drawn) [compound 2652] | – | – | – | – | – | – | 0.65 | 0.87 | 0.57 | 0.71 | 1.22 | 0.80
10 | CC(C)CCCC(C)C1CCC2C3C(O)C=C4CC(O)CCC4(C)C3CCC12C (stereo not drawn) [compound 2669] | – | – | – | – | – | – | 0.11 | 6.75 | 0.74 | 0.62 | 10.96 | 1.20
11 | O=c1[nH]cnc2c1ncn2[C@@H]1O[C@H](CO)[C@@H](O)[C@H]1O [compound 3454] | – | – | – | – | – | – | 0.90 | 0.91 | 0.82 | 0.91 | 1.00 | 0.90
12 | O=c1[nH]cnc2[nH]cnc12 [compound 3455] | – | – | – | – | – | – | 0.80 | 0.89 | 0.71 | 0.88 | 1.01 | 0.81
13 | O=c1[nH]c(=O)c2[nH]cnc2[nH]1 [compound 3456] | – | – | – | – | – | – | 0.45 | 0.69 | 0.31 | 0.56 | 1.24 | 0.56
14 | O=c1[nH]c(=O)c2ncn([C@@H]3O[C@H](CO)[C@@H](O)[C@H]3O)c2[nH]1 [compound 3458] | – | – | – | – | – | – | 0.67 | 0.42 | 0.28 | 0.74 | 0.57 | 0.38
15 | Cn1cnc2c(ncn2[C@@H]2O[C@H](CO)[C@@H](O)[C@H]2O)c1=O [compound 3461] | – | – | – | – | – | – | 0.69 | 1.05 | 0.73 | 0.88 | 1.20 | 0.83
16 | O=c1[nH]cnc2c1ncn2[C@H]1C[C@H](O)[C@@H](CO)O1 [compound 3462] | – | – | – | – | – | – | 0.91 | 0.87 | 0.79 | 0.84 | 1.03 | 0.94
17 | O=c1[nH]c(=O)c2[nH]c(=O)[nH]c2[nH]1 [compound 3464] | – | – | – | – | – | – | 0.46 | 1.49 | 0.69 | 0.83 | 1.81 | 0.84
18 | NC(=O)NC1NC(=O)NC1=O (stereo not drawn) [compound 3466] | – | – | – | – | – | – | 0.60 | 0.95 | 0.57 | 0.80 | 1.19 | 0.72
19 | Nc1ncnc2c1ncn2[C@@H]1O[C@H](COP(=O)(O)OP(=O)(O)O)[C@@H](O)[C@H]1O [compound 3471] | – | – | – | – | – | – | 0.77 | 1.40 | 1.07 | 1.04 | 1.35 | 1.03
20 | Nc1ncnc2c1ncn2[C@@H]1O[C@H](COP(=O)(O)O)[C@@H](O)[C@H]1O [compound 3472] | – | – | – | – | – | – | 0.98 | 1.10 | 1.07 | 1.07 | 1.03 | 1.01
21 | Nc1ncnc2c1ncn2[C@@H]1O[C@H](CO)[C@@H](OP(=O)(O)O)[C@H]1O [compound 3473] | – | – | – | – | – | – | 0.78 | 1.18 | 0.92 | 0.79 | 1.49 | 1.16
22 | Nc1ncnc2c1ncn2[C@@H]1O[C@H](CO)[C@@H](O)[C@H]1OP(=O)(O)O [compound 3474] | – | – | – | – | – | – | 0.83 | 1.27 | 1.05 | 0.91 | 1.40 | 1.15
23 | O=C(O)C[C@H](Nc1ncnc2c1ncn2[C@@H]1O[C@H](COP(=O)(O)O)[C@@H](O)[C@H]1O)C(=O)O [compound 3478] | – | – | – | – | – | – | 0.75 | 0.91 | 0.69 | 0.94 | 0.97 | 0.73
24 | Nc1ncnc2c1ncn2[C@@H]1O[C@H](CO)[C@@H](O)[C@H]1O [compound 3479] | – | – | – | – | – | – | 0.86 | 1.23 | 1.06 | 1.25 | 0.98 | 0.85
25 | Cn1cnc2c(ncn2[C@@H]2O[C@H](CO)[C@@H](O)[C@H]2O)c1=N [compound 3485] | – | – | – | – | – | – | 0.61 | 1.00 | 0.61 | 0.87 | 1.16 | 0.70
26 | C[C@@H](O)[C@H](NC(=O)Nc1ncnc2c1ncn2[C@@H]1O[C@H](CO)[C@@H](O)[C@H]1O)C(=O)O [compound 3495] | – | – | – | – | – | – | 0.78 | 0.99 | 0.77 | 0.88 | 1.12 | 0.87
27 | Nc1ncnc2c1ncn2[C@H]1C[C@H](O)[C@@H](COP(=O)(O)O)O1 [compound 3498] | – | – | – | – | – | – | 1.18 | 1.00 | 1.17 | 1.12 | 0.89 | 1.05
28 | O=C(O)C[C@H](Nc1ncnc2c1ncn2[C@@H]1O[C@H](CO)[C@@H](O)[C@H]1O)C(=O)O [compound 3505] | – | – | – | – | – | – | 0.73 | 0.72 | 0.53 | 0.81 | 0.89 | 0.65
29 | Nc1nc2c(ncn2[C@@H]2O[C@H](COP(=O)(O)OP(=O)(O)O)[C@@H](O)[C@H]2O)c(=O)[nH]1 [compound 3507] | – | – | – | – | – | – | 0.73 | 1.04 | 0.76 | 0.92 | 1.13 | 0.83
30 | Nc1nc2c(ncn2[C@@H]2O[C@H](COP(=O)(O)O)[C@@H](O)[C@H]2O)c(=O)[nH]1 [compound 3508] | – | – | – | – | – | – | 0.90 | 0.91 | 0.82 | 0.98 | 0.92 | 0.83
